The list shows a part of the results. Many values rest on one well or one pass, so single values are uncertain.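 Cells were imaged in 1,536-well plates, and nuclei stained with an antibody against cleaved PARP were counted against all DNA-stained nuclei to give the apoptosis fraction. Screening doses were chosen to leave most cells alive, and resting and induced cleaved-PARP levels differ strongly between cell lines.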

The first test relates to C32. Briefly: cleaved PARP positive nuclei fraction relative to DMSO control; melanoma cells; higher = more apoptosis. The note with it: library dose: low library concentration; 72 h.
On to `C[C@]1(O)C[C@@H](c2nc(-c3ccc4ccc(-c5ccccc5)nc4c3)c3c(N)nccn32)C1` + O=C(O)C(=O)Nc1sc2c(c1C(=O)O)CCNC2 [TCS401] (first compound 0.4 µM, partner dose 1.66667 µM), for which the “cleaved PARP positive nuclei fraction” value was determined as 37%.
Consider `CCN(CC)CCNC(=O)c1c(C)[nH]c(/C=C2\C(=O)Nc3ccc(F)cc32)c1C` [sunitinib] + c1cc(-c2cnn3cc(-c4ccc(OCCN5CCCCC5)cc4)cnc23)ccn1 [Dorsomorphin] (first compound 0.4 µM, partner dose 0.4 µM), for which the “cleaved PARP positive nuclei fraction” value was determined as 88.6%.
As for `CC1(C)CCC(c2ccc(Cl)cc2)=C(CN2CCN(c3ccc(C(=O)NS(=O)(=O)c4ccc(N[C@H](CCN5CCOCC5)CSc5ccccc5)c(S(=O)(=O)C(F)(F)F)c4)cc3)CC2)C1` + COc1cc(N2CCC(N3CCN(C)CC3)CC2)ccc1Nc1ncc(Cl)c(Nc2ccccc2S(=O)(=O)C(C)C)n1 [NVP-TAE684] (first compound 0.4 µM, partner dose 0.08 µM), the “cleaved PARP positive nuclei fraction” value was 179%.
For the molecule `Cn1sc(=O)n(Cc2ccccc2)c1=O` + CCN(CC)CCCCNc1ncc2cc(-c3cc(OC)cc(OC)c3)c(NC(=O)NC(C)(C)C)nc2n1 [PD173074] (first compound 0.4 µM, partner dose 0.1 µM), the “cleaved PARP positive nuclei fraction” value stood at 115%.
Turning to `CCN(CC)CCNC(=O)c1c(C)[nH]c(/C=C2\C(=O)Nc3ccc(F)cc32)c1C` [sunitinib] + CCCCCCCCCCCC1=C(O)C(=O)C=C(O)C1=O [Embelin] (first compound 0.4 µM, partner dose 1.2 µM), the “cleaved PARP positive nuclei fraction” value came out at 84.1%.
In the case of `CN(c1ncccc1CNc1nc(Nc2ccc3c(c2)CC(=O)N3)ncc1C(F)(F)F)S(C)(=O)=O` + COc1ccc(-c2ccc3c(N4CCOCC4)nc(N4C[C@@H](C)O[C@@H](C)C4)nc3n2)cc1CO [KU0063794] (first compound 0.08 µM, partner dose 0.02 µM), the “cleaved PARP positive nuclei fraction” value came to 113%.
Consider `CCN(CC)CCNC(=O)c1c(C)[nH]c(/C=C2\C(=O)Nc3ccc(F)cc32)c1C` [sunitinib] + CCN(CC)CCCCNc1ncc2cc(-c3cc(OC)cc(OC)c3)c(NC(=O)NC(C)(C)C)nc2n1 [PD173074] (first compound 0.4 µM, partner dose 0.1 µM), for which the “cleaved PARP positive nuclei fraction” value was found to be 135%.
Same read-out and setting: the value for `Cn1cnc2c(F)c(Nc3ccc(Br)cc3Cl)c(C(=O)NOCCO)cc21` [selumetinib] + O=C(Nc1ccccc1)c1cc([N+](=O)[O-])ccc1Cl [GW9662] (first compound 0.015 µM, partner dose 2 µM) was 20.6%; that for `C[C@@H](N)c1ccc(C(=O)Nc2ccnc3[nH]ccc23)cc1` + COc1ccc2c(c1)CCC1C2CCC2(C)C(NCCCCCCN3C(=O)C=CC3=O)CCC12 [U73122] (first compound 0.4 µM, partner dose 0.4 µM) was 44.1%; that for `CC(=O)O[C@@]12CO[C@@H]1C[C@H](O)[C@@]1(C)C(=O)[C@H](O)C3=C(C)[C@@H](OC(=O)[C@H](O)[C@@H](NC(=O)OC(C)(C)C)c4ccccc4)C[C@@](O)([C@@H](OC(=O)c4ccccc4)[C@H]21)C3(C)C` [Docetaxel] + COc1ccc(-c2ccc3c(N4CCOCC4)nc(N4C[C@@H](C)O[C@@H](C)C4)nc3n2)cc1CO [KU0063794] (first compound 0.0001 µM, partner dose 0.02 µM) was 184%.
On to `CS(=O)(=O)c1ccc(C(=O)Nc2ccc(Cl)c(-c3ccccn3)c2)c(Cl)c1` [vismodegib] + COc1cc(N2CCC(N3CCN(C)CC3)CC2)ccc1Nc1ncc(Cl)c(Nc2ccccc2S(=O)(=O)C(C)C)n1 [NVP-TAE684] (first compound 1 µM, partner dose 0.08 µM), for which the “cleaved PARP positive nuclei fraction” value worked out at 243%.
As to `NC(=O)c1ccc(N(C(N)=O)c2c(F)cccc2F)nc1-c1ccc(F)cc1F` + O=C(O)C(=O)Nc1sc2c(c1C(=O)O)CCNC2 [TCS401] (first compound 0.4 µM, partner dose 1.66667 µM), the “cleaved PARP positive nuclei fraction” value was determined as 161%.
Regarding `CCN(CC)CCNC(=O)c1c(C)[nH]c(/C=C2\C(=O)Nc3ccc(F)cc32)c1C` [sunitinib] + CC(C)CCN1c2nc(Nc3cc(F)c(O)c(F)c3)ncc2N(C)C(=O)C1C [BID1870] (first compound 0.4 µM, partner dose 0.2 µM), the “cleaved PARP positive nuclei fraction” value stood at 105%.

The next test deals with CBRC008 (line from a melanoma biopsy). The description is as above. The following applies: library dose: low library concentration; 72 h.
In the case of `NC1(c2ccc(-c3nc4ccn5c(=O)[nH]nc5c4cc3-c3ccccc3)cc2)CCC1` + Cc1cc([N+](=O)[O-])ccc1NS(=O)(=O)c1cc(Cl)ccc1Cl [FH535] (first compound 0.4 µM, partner dose 1 µM), the “cleaved PARP positive nuclei fraction” value was found to be 376%.
For `NC1(c2ccc(-c3nc4ccn5c(=O)[nH]nc5c4cc3-c3ccccc3)cc2)CCC1` + O=S(=O)(c1ccccc1)N(CC(F)(F)F)c1ccc(C(O)(C(F)(F)F)C(F)(F)F)cc1 [T0901317] (first compound 0.4 µM, partner dose 1.4 µM), the “cleaved PARP positive nuclei fraction” value was 150%.
As for `CS(=O)(=O)c1ccc(C(=O)Nc2ccc(Cl)c(-c3ccccn3)c2)c(Cl)c1` [vismodegib] + Oc1cc(-c2nc(-c3ccccc3)[nH]c2-c2ccncc2)ccc1Cl [L779450] (first compound 1 µM, partner dose 0.2 µM), the “cleaved PARP positive nuclei fraction” value was found to be 51.6%.
For `C[C@]1(O)C[C@@H](c2nc(-c3ccc4ccc(-c5ccccc5)nc4c3)c3c(N)nccn32)C1` + CC(C)CCN1c2nc(Nc3cc(F)c(O)c(F)c3)ncc2N(C)C(=O)C1C [BID1870] (first compound 0.4 µM, partner dose 0.2 µM), the “cleaved PARP positive nuclei fraction” value was determined as 115%.
`Cn1cnc2c(F)c(Nc3ccc(Br)cc3Cl)c(C(=O)NOCCO)cc21` [selumetinib] + CC(C)CCN1c2nc(Nc3cc(F)c(O)c(F)c3)ncc2N(C)C(=O)C1C [BID1870] (first compound 0.015 µM, partner dose 0.2 µM): the “cleaved PARP positive nuclei fraction” value came out at 148%.
On the same count and under the same terms, the value for `C[C@]1(O)C[C@@H](c2nc(-c3ccc4ccc(-c5ccccc5)nc4c3)c3c(N)nccn32)C1` + CCN(CC)CCCCNc1ncc2cc(-c3cc(OC)cc(OC)c3)c(NC(=O)NC(C)(C)C)nc2n1 [PD173074] (first compound 0.4 µM, partner dose 0.1 µM) was 192%; that for `CCCCCCCCc1ccc(CCC(N)(CO)CO)cc1` [fingolimod] + Cn1cc(/C=C2\C(=O)Nc3cccnc32)c2ccccc21 [GW441756] (first compound 2 µM, partner dose 0.4 µM) was 51.2%.
As for `CS(=O)(=O)c1ccc(C(=O)Nc2ccc(Cl)c(-c3ccccn3)c2)c(Cl)c1` [vismodegib] + COc1ccc(COc2ccc(Cc3cnc(N)nc3N)cc2OC)cc1 [GW2580] (first compound 1 µM, partner dose 1 µM), the “cleaved PARP positive nuclei fraction” value came out at 49.4%.
Take `CC(=O)O[C@@]12CO[C@@H]1C[C@H](O)[C@@]1(C)C(=O)[C@H](O)C3=C(C)[C@@H](OC(=O)[C@H](O)[C@@H](NC(=O)OC(C)(C)C)c4ccccc4)C[C@@](O)([C@@H](OC(=O)c4ccccc4)[C@H]21)C3(C)C` [Docetaxel] + c1cc(-c2cnn3cc(-c4ccc(OCCN5CCCCC5)cc4)cnc23)ccn1 [Dorsomorphin] (first compound 0.0001 µM, partner dose 0.4 µM): the “cleaved PARP positive nuclei fraction” value was 664%.
Still for that read-out and setting: the figure for `CS(=O)(=O)c1ccc(C(=O)Nc2ccc(Cl)c(-c3ccccn3)c2)c(Cl)c1` [vismodegib] + O=C(Nc1ccccc1)c1cc([N+](=O)[O-])ccc1Cl [GW9662] (first compound 1 µM, partner dose 2 µM) is 42.6%; for `NC(=O)c1ccc(N(C(N)=O)c2c(F)cccc2F)nc1-c1ccc(F)cc1F` + COc1ccc(-c2ccc3c(N4CCOCC4)nc(N4C[C@@H](C)O[C@@H](C)C4)nc3n2)cc1CO [KU0063794] (first compound 0.4 µM, partner dose 0.02 µM) it is 64.3%.
Same read-out and setting: the figure for `CN(c1ncccc1CNc1nc(Nc2ccc3c(c2)CC(=O)N3)ncc1C(F)(F)F)S(C)(=O)=O` + Oc1nc(-c2ccc(C(F)(F)F)cc2)nc2c1CSCC2 [XAV939] (first compound 0.08 µM, partner dose 2 µM) is 107%; for `CS(=O)(=O)c1ccc(C(=O)Nc2ccc(Cl)c(-c3ccccn3)c2)c(Cl)c1` [vismodegib] + COC(=O)c1sccc1S(=O)(=O)Nc1ccc(Nc2ccccc2)cc1OC [GSK0660] (first compound 1 µM, partner dose 1 µM) it is 193%; for `Cn1sc(=O)n(Cc2ccccc2)c1=O` + O=C(O)C(=O)Nc1sc2c(c1C(=O)O)CCNC2 [TCS401] (first compound 0.4 µM, partner dose 1.66667 µM) it is 156%.
Same read-out and setting: the value for `Cn1cnc2c(F)c(Nc3ccc(Br)cc3Cl)c(C(=O)NOCCO)cc21` [selumetinib] + N#Cc1c(O)c2c(-c3ccc(-c4ccccc4O)cc3)csc2[nH]c1=O [A769662] (first compound 0.015 µM, partner dose 2 µM) was 189%.
With `CCN(CC)CCNC(=O)c1c(C)[nH]c(/C=C2\C(=O)Nc3ccc(F)cc32)c1C` [sunitinib] + N#Cc1c(O)c2c(-c3ccc(-c4ccccc4O)cc3)csc2[nH]c1=O [A769662] (first compound 0.4 µM, partner dose 2 µM), the “cleaved PARP positive nuclei fraction” value came to 172%.
Still for that read-out and setting: the figure for `CS(=O)(=O)c1ccc(C(=O)Nc2ccc(Cl)c(-c3ccccn3)c2)c(Cl)c1` [vismodegib] + Cn1cc(/C=C2\C(=O)Nc3cccnc32)c2ccccc21 [GW441756] (first compound 1 µM, partner dose 0.4 µM) is 44.4%.

(Values after the supplement of paper PMC4604168 (melanoma cell lines).)
